# Measurements published in PubChem BioAssay AID2685 (National Center for Advancing Translational Sciences (NCATS), 2010).
# The other results are listed elsewhere or left out. The main result of the screen is listed elsewhere. These columns were measured beside it and carry no call. Compounds called inactive in the main read-out are mostly missing here. Potencies come from curve fits of mixed quality, noted in brackets.
# Assay: qHTS Assay for Lipid Storage Modulators in Drosophila S3 Cells;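 for cell number change: cells counted by Cell Tracker Red CMTPX staining in the red channel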
# Details: BODIPY lipid droplet fluorescence, 18-24 h; for cell number change: measured here: cell count max response, cells fed with added oleic acid
# How it was run: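 Drosophila S3 cells loaded with oleic acid (400 uM, as added) and compounds at several concentrations; lipid droplets imaged by 488-nm laser-scanning cytometry, 500–530 nm intensity and object ratio to cell channel. Percent activity normalized to 20 uM Triacsin C.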
# [1] = measured here: cell number channel AC50, cells fed with added oleic acid
# [2] = measured here: lipid fluorescence (Fed channel) AC50, cells fed with added oleic acid
Structure (SMILES),cell number change [%],AC50 [1],AC50 [2]
COC(=O)Nc1ccc2c(c1)N(C(=O)CCN(C)C)c1ccccc1CC2,-15.7,"0.00461 µM [falling, full curve, poor fit]","29.1 µM [rising, single point]"
O=C(NCC1CCCO1)C1CCN(C(=O)c2ccc(Cl)cc2)CC1 (stereo not given),-171,"29.1 µM [falling, single point]","29.1 µM [falling, single point]"
COc1cccc2cc(-c3cc(=O)oc4cc(C)c(OCC(C)=O)cc34)oc12,-7.16,–,–
COc1ccc(-n2c(COc3ccc4ccccc4c3)nnc2SCC(=O)NCc2ccco2)cc1,-9.97,"0.461 µM [rising, full curve, poor fit]",–
COc1cccc(CNC(=O)C2CCCN(c3nn4c(=O)cc(C)nc4s3)C2)c1OC (stereo not given),75.3,"11.6 µM [rising, partial curve]","9.2 µM [rising, partial curve]"
COC(=O)c1cc(C(=O)OC)n(Cc2ccc(C)cc2)c1C,36.6,"0.116 µM [rising, full curve, poor fit]","0.184 µM [rising, full curve, poor fit]"
CCC(CO)NC1=CC(=O)CCC1 (stereo not given),-20.2,"0.517 µM [rising, single point]","32.6 µM [falling, single point]"
CC(CN1CCCCC1)OC(=O)c1ccco1 (stereo not given),3.95,–,–
Cc1cccc(CN2C(=O)N/C(=C/c3cc(C)n(-c4cc(C)ccn4)c3C)C2=O)c1,-70,"16.4 µM [falling, partial curve]","29.1 µM [falling, single point]"
COc1ccc(/C=C(/NC(=O)c2ccccc2)c2nc3ccc(Cl)cc3[nH]2)cc1OC,4.94,–,–
COc1ccc(N2CCN(CCCNC(=S)Nc3c(C)cccc3C)CC2)cc1,4.84,–,–
COc1ccccc1-c1cc(N)n[nH]1,–,"1.16 µM [rising, partial curve]","4.11 µM [rising, single point]"
O=C(CCn1c(=S)[nH]c2ccccc2c1=O)Nc1ccc(F)cc1,49.5,"1.84 µM [rising, partial curve, poor fit]",–
Cc1ccc(C(=O)COC(=O)CCC(=O)NC2CCCCC2)cc1C,3.64,–,"20.6 µM [falling, partial curve]"
COc1ccc(-c2nc(CS(=O)CC(=O)NCc3ccc4c(c3)OCO4)c(C)o2)cc1OC (stereo not given),-49.9,"29.1 µM [falling, single point]",–
Cc1nc2ccc(NC3=NCCCCC3)cc2s1,3.97,–,"2.06 µM [falling, full curve, poor fit]"
CC(C)CNC(=S)NC(=O)c1ccc(Cl)cc1,21.4,–,"9.2 µM [rising, partial curve, poor fit]"
Clc1ccc(OCCCCSc2ncccn2)cc1,58.3,"18.4 µM [rising, single point]",–

Structure (SMILES),cell number change [%],AC50 [1],AC50 [2]
COc1ccc(NS(=O)(=O)c2ccc(OCC(=O)N3CCOCC3)cc2)cc1,10.6,–,"0.259 µM [rising, full curve, poor fit]"
Cc1cc(Cl)ccc1NC(=O)CN1C(=O)NC2(CCCc3ccccc32)C1=O (stereo not given),48.4,"0.058 µM [rising, full curve]","0.366 µM [rising, partial curve]"
Oc1ccc(-c2nccc(-c3ccc(Br)cc3)n2)cc1,-44.6,"32.6 µM [falling, single point]","29.1 µM [falling, single point]"
Cn1nc(-c2ccccc2)cc1NC(=O)Nc1ccc(C(C)(C)C)cc1,-28.5,–,"14.6 µM [falling, single point]"
COc1ccccc1C(=O)NCCC(=O)N(C)CC(=O)Nc1ccccc1Br,–,"6.51 µM [rising, single point]",–
Cc1c(O)cccc1C(=O)N[C@@H](CSc1ccccc1)[C@H](O)CN1C[C@H]2CCCC[C@H]2C[C@H]1C(=O)NC(C)(C)C,45.1,"14.6 µM [rising, partial curve, poor fit]","32.6 µM [falling, single point]"
O=C(COc1coc(CN2CCc3ccccc32)cc1=O)N1CCCCC1,–,"0.146 µM [rising, full curve, poor fit]",–
CCOC(=O)c1cc(-c2cc(OC)c(OC)c(OC)c2)nc2c1c(=O)[nH]c(=O)n2Cc1ccccc1,-23.1,–,–
Cc1ccc(S(=O)(=O)N2CCCCC2)cc1C(=O)Nc1ccccn1,-29.6,"0.731 µM [falling, full curve, poor fit]",–
COc1ccc(/C=C2\SC(=S)N(N3C(=O)CCC3=O)C2=O)cc1O,-18.6,–,–
CCOC(=O)Nc1sc2c(c1C#N)CCCC2,-32.5,"0.58 µM [falling, full curve, poor fit]","29.1 µM [rising, single point]"
Cc1ccc(-c2nn3c(C)nnc3s2)cc1NC(=O)c1cccs1,17,–,"0.116 µM [rising, full curve]"
Clc1ccc(CN2CCc3c([nH]c4ccccc34)C2)cc1Cl,-95.5,"18.4 µM [falling, partial curve]","16.4 µM [falling, partial curve]"
Cc1[nH]c2ccccc2c1/C=N\NC(=O)c1ccco1,-19.3,–,"29.1 µM [falling, single point]"
O=c1cc(O)c(-c2ccccc2Cl)c(Cl)[nH]1,-31.4,"1.3 µM [falling, full curve]","3.66 µM [falling, full curve]"
CC(C)(C)c1cc(C(=O)NCc2ccccc2)ccn1,-31.8,"9.2 µM [falling, partial curve, poor fit]","8.2 µM [falling, partial curve]"
CCOc1ccc(N(CC(=O)N/N=C/c2ccc(OC(C)C)cc2)S(C)(=O)=O)cc1,-10.1,–,"0.517 µM [rising, full curve, poor fit]"

# 2 compounds picked at random from the list so far, as already listed:
Structure (SMILES),cell number change [%],AC50 [1],AC50 [2]
Cn1nc(-c2ccccc2)cc1NC(=O)Nc1ccc(C(C)(C)C)cc1,-28.5,–,"14.6 µM [falling, single point]"
Cc1cc(Cl)ccc1NC(=O)CN1C(=O)NC2(CCCc3ccccc32)C1=O (stereo not given),48.4,"0.058 µM [rising, full curve]","0.366 µM [rising, partial curve]"
